Data reported in PubChem BioAssay AID2662 (National Center for Advancing Translational Sciences (NCATS), 2010).
In all, about 290,000 compounds went through this assay and about 110 (0.038%) were called active. This list was built around the results that the source calls inconclusive (neither active nor inactive); the mix of calls is not that of the screen. Calls come from the whole dose curve; as a rule, active = well fitted inhibition curve with a large enough effect in the polarisation, with a control signal flat (not every such curve was filed as active); inconclusive = small, poorly fitted or top-dose-only effect, or effect the other way, or a change in a side signal; inactive = no such curve, though single readings can be large or run the other way; the % refers to the polarisation. Potencies beside an inconclusive call are fits to weak or partial responses and may not hold up. “Side channel” marks fits to a control or component signal instead of the main read-out.

Sequences of proteins named here, by UniProt entry; tags and fusion partners are left off.
UniProt Q03164, whole entry, looked up: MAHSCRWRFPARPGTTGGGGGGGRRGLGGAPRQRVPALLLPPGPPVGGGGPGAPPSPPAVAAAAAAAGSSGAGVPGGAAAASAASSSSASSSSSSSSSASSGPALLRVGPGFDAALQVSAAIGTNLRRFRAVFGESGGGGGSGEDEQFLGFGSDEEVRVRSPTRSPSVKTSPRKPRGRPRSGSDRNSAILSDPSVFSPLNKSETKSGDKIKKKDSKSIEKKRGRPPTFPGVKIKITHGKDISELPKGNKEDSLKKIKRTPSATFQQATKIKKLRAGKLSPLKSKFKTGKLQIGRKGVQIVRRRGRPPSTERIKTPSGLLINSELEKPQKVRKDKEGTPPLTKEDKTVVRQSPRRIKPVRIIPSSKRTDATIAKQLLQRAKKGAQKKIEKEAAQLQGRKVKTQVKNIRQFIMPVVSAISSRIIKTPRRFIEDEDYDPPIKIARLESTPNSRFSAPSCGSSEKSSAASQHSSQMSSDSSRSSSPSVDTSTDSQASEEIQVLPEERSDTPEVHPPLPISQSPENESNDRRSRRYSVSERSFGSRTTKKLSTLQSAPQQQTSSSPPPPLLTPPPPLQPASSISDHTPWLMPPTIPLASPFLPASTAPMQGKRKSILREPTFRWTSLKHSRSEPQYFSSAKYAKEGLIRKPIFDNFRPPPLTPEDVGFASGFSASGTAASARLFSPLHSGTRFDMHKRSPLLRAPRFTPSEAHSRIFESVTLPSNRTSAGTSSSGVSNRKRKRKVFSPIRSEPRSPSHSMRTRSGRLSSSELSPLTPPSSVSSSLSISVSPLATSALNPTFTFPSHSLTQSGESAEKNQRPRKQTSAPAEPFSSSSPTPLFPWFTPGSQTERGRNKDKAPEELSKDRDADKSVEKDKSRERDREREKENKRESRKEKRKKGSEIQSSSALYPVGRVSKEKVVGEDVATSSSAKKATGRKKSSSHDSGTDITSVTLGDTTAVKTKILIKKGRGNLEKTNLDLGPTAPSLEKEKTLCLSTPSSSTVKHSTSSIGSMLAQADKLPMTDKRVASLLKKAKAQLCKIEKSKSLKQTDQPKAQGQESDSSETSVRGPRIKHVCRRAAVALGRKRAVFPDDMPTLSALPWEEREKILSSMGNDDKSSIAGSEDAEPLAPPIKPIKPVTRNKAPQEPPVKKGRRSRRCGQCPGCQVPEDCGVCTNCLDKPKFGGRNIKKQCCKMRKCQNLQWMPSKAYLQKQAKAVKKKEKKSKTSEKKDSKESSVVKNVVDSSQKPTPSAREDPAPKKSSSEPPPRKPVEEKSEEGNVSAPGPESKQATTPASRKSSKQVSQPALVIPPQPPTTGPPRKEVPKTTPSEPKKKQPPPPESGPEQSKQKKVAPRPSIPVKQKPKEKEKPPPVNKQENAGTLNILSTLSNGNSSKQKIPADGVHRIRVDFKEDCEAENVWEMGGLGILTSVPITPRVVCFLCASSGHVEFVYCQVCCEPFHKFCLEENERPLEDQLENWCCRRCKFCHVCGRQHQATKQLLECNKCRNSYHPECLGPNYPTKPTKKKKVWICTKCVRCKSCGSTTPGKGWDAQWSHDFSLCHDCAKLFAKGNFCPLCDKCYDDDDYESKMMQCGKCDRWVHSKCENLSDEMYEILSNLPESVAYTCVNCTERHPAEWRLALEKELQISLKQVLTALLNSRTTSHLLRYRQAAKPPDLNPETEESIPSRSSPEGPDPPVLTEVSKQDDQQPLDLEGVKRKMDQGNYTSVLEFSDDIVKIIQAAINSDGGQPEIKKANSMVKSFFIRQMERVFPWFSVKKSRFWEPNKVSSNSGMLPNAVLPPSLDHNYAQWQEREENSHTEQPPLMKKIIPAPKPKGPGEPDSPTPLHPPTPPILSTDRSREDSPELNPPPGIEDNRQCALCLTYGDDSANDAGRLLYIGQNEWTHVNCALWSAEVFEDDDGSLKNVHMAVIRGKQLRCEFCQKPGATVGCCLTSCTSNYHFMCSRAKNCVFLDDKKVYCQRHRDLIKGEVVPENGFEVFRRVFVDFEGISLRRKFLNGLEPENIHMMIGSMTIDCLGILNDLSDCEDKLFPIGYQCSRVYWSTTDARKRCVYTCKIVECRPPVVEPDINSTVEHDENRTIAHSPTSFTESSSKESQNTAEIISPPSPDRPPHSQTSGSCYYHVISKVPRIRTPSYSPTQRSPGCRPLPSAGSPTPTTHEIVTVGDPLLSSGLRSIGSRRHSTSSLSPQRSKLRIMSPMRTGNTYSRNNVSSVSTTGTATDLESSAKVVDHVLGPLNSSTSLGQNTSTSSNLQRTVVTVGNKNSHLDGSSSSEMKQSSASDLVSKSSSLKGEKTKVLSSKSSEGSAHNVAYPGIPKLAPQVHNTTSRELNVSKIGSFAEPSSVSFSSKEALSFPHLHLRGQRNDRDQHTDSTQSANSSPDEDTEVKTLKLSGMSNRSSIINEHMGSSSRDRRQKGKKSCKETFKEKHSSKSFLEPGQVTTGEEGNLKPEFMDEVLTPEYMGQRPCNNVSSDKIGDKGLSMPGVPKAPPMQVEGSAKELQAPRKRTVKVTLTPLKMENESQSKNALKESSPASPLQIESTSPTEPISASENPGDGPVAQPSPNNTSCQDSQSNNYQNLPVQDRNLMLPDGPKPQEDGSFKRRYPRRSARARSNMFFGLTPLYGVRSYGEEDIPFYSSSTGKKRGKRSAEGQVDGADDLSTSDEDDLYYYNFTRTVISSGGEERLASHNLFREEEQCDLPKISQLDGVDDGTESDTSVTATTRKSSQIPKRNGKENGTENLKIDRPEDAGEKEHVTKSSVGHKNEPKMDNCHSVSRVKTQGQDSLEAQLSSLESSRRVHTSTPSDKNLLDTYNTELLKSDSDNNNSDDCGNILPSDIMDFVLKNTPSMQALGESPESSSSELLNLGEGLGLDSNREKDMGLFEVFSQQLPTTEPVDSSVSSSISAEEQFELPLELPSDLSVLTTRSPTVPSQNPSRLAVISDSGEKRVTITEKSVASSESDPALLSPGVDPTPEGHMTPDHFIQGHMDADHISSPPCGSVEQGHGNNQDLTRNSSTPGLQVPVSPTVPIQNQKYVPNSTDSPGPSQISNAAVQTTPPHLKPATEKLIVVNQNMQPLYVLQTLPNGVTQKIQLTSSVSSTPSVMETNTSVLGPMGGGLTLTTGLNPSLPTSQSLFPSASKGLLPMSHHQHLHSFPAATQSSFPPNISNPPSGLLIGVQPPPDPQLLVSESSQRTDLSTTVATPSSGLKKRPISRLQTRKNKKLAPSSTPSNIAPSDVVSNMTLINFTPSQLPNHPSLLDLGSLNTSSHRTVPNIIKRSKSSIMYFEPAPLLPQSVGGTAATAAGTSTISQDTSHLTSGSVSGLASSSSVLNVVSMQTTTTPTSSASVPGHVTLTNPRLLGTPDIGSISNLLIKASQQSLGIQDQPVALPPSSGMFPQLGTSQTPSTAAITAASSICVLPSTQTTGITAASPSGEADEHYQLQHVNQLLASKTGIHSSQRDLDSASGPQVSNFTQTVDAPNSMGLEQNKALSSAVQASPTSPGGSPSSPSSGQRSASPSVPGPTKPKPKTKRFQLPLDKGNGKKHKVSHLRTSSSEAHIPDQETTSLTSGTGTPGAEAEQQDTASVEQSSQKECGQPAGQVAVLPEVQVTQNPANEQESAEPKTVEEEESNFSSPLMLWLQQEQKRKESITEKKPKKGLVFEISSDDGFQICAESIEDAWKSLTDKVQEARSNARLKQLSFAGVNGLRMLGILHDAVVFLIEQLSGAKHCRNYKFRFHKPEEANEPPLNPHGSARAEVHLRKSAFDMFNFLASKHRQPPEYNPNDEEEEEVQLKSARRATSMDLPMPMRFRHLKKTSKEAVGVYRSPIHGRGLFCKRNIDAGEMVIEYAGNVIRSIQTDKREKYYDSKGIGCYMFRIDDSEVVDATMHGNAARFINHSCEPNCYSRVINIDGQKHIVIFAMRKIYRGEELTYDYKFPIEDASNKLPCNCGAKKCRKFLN

biological target: Histone-lysine N-methyltransferase 2A (Homo sapiens) (UniProt Q03164); experiment: qHTS Fluorescence Polarization Assay for Inhibitors of MLL CXXC domain - DNA interaction; settings: MLL-CXXC / FITC-HOXA9 DNA fluorescence polarization; series mostly up to 115 µM
Summary of the method: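 Steps: dispense CXXC domain solution (7 uM) → pin compounds or unlabeled HOX-A9 DNA control → 5 min ambient → add FLSN-HOX-A9 solution (50 nM) → spin → 30 min ambient → fluorescence polarization. Tris pH 7.5/NaCl/DTT/BSA buffer.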
Potency is the fitted concentration of half-maximal effect.

Question: Which Potency does the source give for `OCC1CCCN(c2ncnc3scc(-c4ccccc4)c23)C1` (centres undefined) here?
Answer: inconclusive: 5.01 µM [fluorescent, side channel, full curve]

Question: For `CC1N(C)c2cc(NC(=O)c3ccco3)ccc2C1(C)C` (centres undefined), which Potency is on record?
Answer: inactive

Question: For `COC(=O)CSc1ccsc1C(=O)O`, which Potency is on record?
Answer: inconclusive: 70.8 µM [fluorescent, side channel, single point]

Question: For `CC(C)(C)C1(C)OC(=O)C(=Cc2ccc(OCC(=O)Nc3ccccc3)cc2)C(=O)O1` (centres undefined), which Potency is on record?
Answer: inconclusive: 35.5 µM [inhibitor, single point]

Question: Which Potency does the source give for `O=S(=O)(Nc1ccc(-c2cn3ccccc3n2)cc1)c1ccccc1` here?
Answer: inactive

Question: With `CC(=O)c1ccc(OC(=O)CCc2nc3ccccc3s2)cc1` as the compound, how does the Potency read?
Answer: inactive

Question: Which Potency does the source give for `Cn1nnc(NC(=O)c2ccc(Br)o2)n1` here?
Answer: inactive

Question: With `O=C(Cc1ccc(Cl)cc1)N/N=C/c1cccc(O)c1` as the compound, how does the Potency read?
Answer: inactive

Question: Which Potency does the source give for `CC1CN(S(=O)(=O)c2ccc(C(=O)N(CCCN(C)C)c3nc4c(Cl)cccc4s3)cc2)CC(C)O1` (centres undefined) here?
Answer: inconclusive: 14.1 µM [fluorescent, side channel, single point]

Question: With `Cn1c(=O)c(C#N)c(-c2ccc(F)cc2)c2cc(C(=O)c3cc(Cl)cc(Cl)c3O)cnc21` as the compound, how does the Potency read?
Answer: inactive

Question: How did the Potency turn out when `CCOC(=O)CCc1c(C)c2ccc(OCc3cc([N+](=O)[O-])ccc3OC)cc2oc1=O` was run?
Answer: inconclusive: 8.91 µM [quencher, side channel, single point]

Question: How did the Potency turn out when `CCOc1ccccc1NC(=O)c1c(NC(=O)CNCc2ccco2)sc2c1CCC2` was run?
Answer: inconclusive: 70.8 µM [fluorescent, side channel, single point]

Question: How did the Potency turn out when `CCOC(=O)N1C(=O)[C@](c2ccc(Cl)cc2)(C(C)C)N1C(=O)OCC` was run?
Answer: inactive

Question: `CCCc1[nH]c(=O)c(C#N)c2c1COC(C)(C)C2` was tested. Which Potency did it give?
Answer: inactive

Question: How did the Potency turn out when `O=C(COc1ccc(Cl)cc1)N(Cc1ccccc1)c1nc(-c2ccccc2)cs1` was run?
Answer: inconclusive: 70.8 µM [fluorescent, side channel, single point]

Question: How did the Potency turn out when `Cc1ccc(C(=O)Nc2cccc3[nH]c(C(F)(F)F)nc23)cc1` was run?
Answer: inactive

Question: `CCCCNCc1cc(Cl)c(OCCC)c(OCC)c1` was tested. Which Potency did it give?
Answer: inconclusive: 89.1 µM [quencher, side channel, single point]

Question: Which Potency does the source give for `COc1cc(/C=C2/C(=N)N3C(SC)=NSC3=NC2=O)ccc1OC(=O)c1ccco1` here?
Answer: inactive

Question: Which Potency does the source give for `O=C(O)c1sccc1SCc1ccc(Cl)cc1Cl` here?
Answer: inconclusive: 28.2 µM [inhibitor, partial curve]

Question: How did the Potency turn out when `CC(=O)Oc1cccc(N2C(=O)C3C4C=CC(CC4)C3C2=O)c1` (centres undefined) was run?
Answer: inconclusive: 39.8 µM [inhibitor, single point]

Question: Which Potency does the source give for `O=C(O)c1ccc(NS(=O)(=O)c2ccc3c(c2)C2C=CCC2C(c2ccccc2F)N3)cc1` (centres undefined) here?
Answer: inconclusive: 39.8 µM [inhibitor, single point]

Question: Which Potency does the source give for `N#C/C(=C/c1ccc(N2CCCCCC2)o1)c1cccc(F)c1` here?
Answer: inactive

Question: `CCn1c(COc2ccccc2)nnc1SCC(=O)NC1CCCCC1` was tested. Which Potency did it give?
Answer: inactive

Question: `Cc1cc(C(=O)CSc2nc3ccccc3c(=O)n2C)c(C)n1Cc1ccc2c(c1)OCO2` was tested. Which Potency did it give?
Answer: inactive

Question: With `COc1ccc(NC(=O)NNS(=O)(=O)c2ccc(OC)c(OC)c2)c(OC)c1` as the compound, how does the Potency read?
Answer: inconclusive: 17.8 µM [quencher, side channel, partial curve]

Question: How did the Potency turn out when `O=C(/C=C/c1ccc([N+](=O)[O-])cc1)NCc1ccccn1` was run?
Answer: inconclusive: 11.2 µM [inhibitor, single point]

Question: How did the Potency turn out when `Cc1cc(C(=O)CS(=O)(=O)c2ccc(F)cc2)cc(C)c1O` was run?
Answer: inconclusive: 35.5 µM [fluorescent, single point]

Question: For `Oc1ccc(C2Nc3cccc4cccc(c34)N2)cc1`, which Potency is on record?
Answer: inconclusive: 14.1 µM [quencher, side channel, full curve, poor fit]

Question: Which Potency does the source give for `CC1CN(C(=O)Cn2cc(SCC(=O)N3CCOCC3)c3ccccc32)CC(C)O1` (centres undefined) here?
Answer: inconclusive: 1 µM [fluorescent, side channel, full curve, poor fit]

Question: How did the Potency turn out when `COc1ccc(C(CCNCc2ccc(OC)c(OC)c2)c2ccc(F)cc2)cc1` (centres undefined) was run?
Answer: inactive

Question: Which Potency does the source give for `Clc1ccc2nnc(Cl)n2n1` here?
Answer: inactive

Question: With `C=CCC1=C/C(=C\c2c(N)n3nc(CC(=O)N4CCOCC4)sc3nc2=O)C=C(OC)C1=O` as the compound, how does the Potency read?
Answer: inconclusive: 70.8 µM [fluorescent, side channel, partial curve]

Question: `Cc1ccc(-c2c[n+](Cc3ccc(Cl)c(Cl)c3)c3n2CCC3)cc1` was tested. Which Potency did it give?
Answer: inconclusive: 17.8 µM [fluorescent, side channel, partial curve]

Question: For `O=c1oc2cc(O)ccc2c2ccccc12`, which Potency is on record?
Answer: inactive

Question: With `CC[C@@H](C)[C@H](NC(=O)CNC(=O)Cc1c(C)c2c(cc(C)c3c(C)coc32)oc1=O)C(=O)O` as the compound, how does the Potency read?
Answer: inconclusive: 5.62 µM [fluorescent, side channel, partial curve]

Question: With `Cc1cccc(N(C(=O)c2csnn2)C(C(=O)NC2CCCCC2)c2ccncc2)c1` (centres undefined) as the compound, how does the Potency read?
Answer: inconclusive: 1.58 µM [fluorescent, side channel, full curve, poor fit]

Question: For `COc1ccc(S(=O)(=O)N2CCC(CN3C(=O)c4cccc5cccc(c45)C3=O)CC2)cc1`, which Potency is on record?
Answer: inconclusive: 70.8 µM [fluorescent, side channel, single point]

Question: `COc1ccc(C)cc1S(=O)(=O)NC(C)C(=O)NC1CC1` (centres undefined) was tested. Which Potency did it give?
Answer: inconclusive: 8.91 µM [quencher, side channel, partial curve]

Question: For `CCC(Oc1ccccc1)C(=O)NC1C(=O)N2C1SC(C)(C)C2C(=O)O` (centres undefined), which Potency is on record?
Answer: inconclusive: 31.6 µM [inhibitor, single point]

Question: With `CC(C)CC(NC(=O)/C(=C/c1ccco1)NC(=O)c1ccc(Br)o1)C(=O)O` (centres undefined) as the compound, how does the Potency read?
Answer: inconclusive: 7.94 µM [fluorescent, side channel, single point]

Question: Which Potency does the source give for `CC(=O)c1cccc(NC(=S)NC(=O)c2ccccc2C)c1` here?
Answer: inconclusive: 70.8 µM [fluorescent, side channel, single point]

Question: `CCOc1ccc(/C=N/n2c(SC)nnc(C(C)(C)C)c2=O)cc1` was tested. Which Potency did it give?
Answer: inactive

Question: With `CN(C[C@H](Cc1ccccc1)N(C[C@@H](CC1CCCCC1)N(CCc1ccccc1)N=O)N=O)N=O` as the compound, how does the Potency read?
Answer: inconclusive: 25.1 µM [inhibitor, partial curve]

Question: How did the Potency turn out when `CC(Nc1cc(C)cc(C)c1)=[N+](C)CCNS(=O)(=O)c1ccc(Cl)cc1` was run?
Answer: inactive

Question: `CN1CCc2nc(NC(=O)c3cccc(S(=O)(=O)N4CCc5ccccc54)c3)sc2C1` was tested. Which Potency did it give?
Answer: inconclusive: 39.8 µM [quencher, side channel, partial curve]

Question: `CCN(CC)CCNC(=O)CCCCn1c(=S)[nH]c2c([nH]c3ccc(OC)cc32)c1=O` was tested. Which Potency did it give?
Answer: inconclusive: 63.1 µM [quencher, side channel, single point]

Question: For `COc1ccc(NC(=O)CN2CCN(CC(=O)Nc3ccccc3OC)CC2)c(OC)c1`, which Potency is on record?
Answer: inconclusive: 35.5 µM [fluorescent, side channel, partial curve]

Question: `O=C(COC(=O)c1cc[n+]([O-])cc1)Nc1ccccc1Sc1ccccc1` was tested. Which Potency did it give?
Answer: inconclusive: 25.1 µM [fluorescent, side channel, partial curve, poor fit]

Question: With `CN=c1scc(-c2ccccc2F)n1/N=C/c1ccc(O)c(O)c1O` as the compound, how does the Potency read?
Answer: inactive

Question: For `C=CC[n+]1c(/C=C/c2ccc(OC(C)=O)c(OC)c2)ccc2ccccc21`, which Potency is on record?
Answer: inconclusive: 31.6 µM [fluorescent, side channel, partial curve]

Question: How did the Potency turn out when `N#C/C(=C(/O)COC(=O)c1ccccc1O)c1nc2ccccc2s1` was run?
Answer: inconclusive: 63.1 µM [fluorescent, side channel, single point]

Question: With `CCOCCCNC(=O)CCC(=O)NNc1nc2ccccc2c2nc(-c3ccccc3)nn12` as the compound, how does the Potency read?
Answer: inconclusive: 10 µM [quencher, side channel, single point]

Question: Which Potency does the source give for `C1CCc2nnc(-c3nnc4n3CCCCC4)n2CC1` here?
Answer: inactive

Question: With `O=C(N/N=C/c1cc(Br)cc(Br)c1O)c1cccc(S(=O)(=O)N2CCOCC2)c1` as the compound, how does the Potency read?
Answer: inconclusive: 39.8 µM [fluorescent, side channel, single point]

Question: How did the Potency turn out when `O=C(NN1C(=O)c2ccccc2NC1c1ccc([N+](=O)[O-])o1)c1ccc([N+](=O)[O-])cc1` (centres undefined) was run?
Answer: inactive

Question: For `Cc1ccc2nc(NC(=O)C3CCN(S(=O)(=O)c4cccs4)CC3)sc2c1`, which Potency is on record?
Answer: inactive

Question: For `Cc1c(N=NC2=C(O)CCCC2=O)c(=O)n(-c2ccccc2)n1C`, which Potency is on record?
Answer: inactive

Question: With `N#C/C(=C/c1cc(Cl)c(O)c(Cl)c1)C(=O)N1CCCCC1` as the compound, how does the Potency read?
Answer: inconclusive: 31.6 µM [inhibitor, partial curve]

Question: For `CC1(C)CCSC(/C=C/c2ccccc2)=N1`, which Potency is on record?
Answer: inconclusive: 14.1 µM [fluorescent, side channel, single point]

Question: How did the Potency turn out when `Cc1cc(N)ccc1N1CCCC1` was run?
Answer: inconclusive: 31.6 µM [quencher, side channel, partial curve]

Question: With `CCOC(=O)c1[nH]c2ccc(F)cc2c1NC(=O)c1ccccc1C(=O)O` as the compound, how does the Potency read?
Answer: inconclusive: 10 µM [fluorescent, side channel, single point]

Question: How did the Potency turn out when `O=c1oc2ccccc2nc1/C=C(O)/C=C\c1ccccc1` was run?
Answer: inconclusive: 63.1 µM [fluorescent, single point]

Question: Which Potency does the source give for `N#CCC(=O)N/N=C/c1cc(Br)ccc1OCc1cccc2ccccc12` here?
Answer: inconclusive: 89.1 µM [fluorescent, side channel, single point]

Question: With `COc1cccc(N2C(=O)C3CCCN3C2=S)c1` (centres undefined) as the compound, how does the Potency read?
Answer: inconclusive: 14.1 µM [fluorescent, side channel, single point]
